Our source for the binding values is publication doi:10.1101/350686.

Protein sequences, listed by entry. Tags and fused reporters are not part of them.
UniProt Q8TEQ6, whole entry: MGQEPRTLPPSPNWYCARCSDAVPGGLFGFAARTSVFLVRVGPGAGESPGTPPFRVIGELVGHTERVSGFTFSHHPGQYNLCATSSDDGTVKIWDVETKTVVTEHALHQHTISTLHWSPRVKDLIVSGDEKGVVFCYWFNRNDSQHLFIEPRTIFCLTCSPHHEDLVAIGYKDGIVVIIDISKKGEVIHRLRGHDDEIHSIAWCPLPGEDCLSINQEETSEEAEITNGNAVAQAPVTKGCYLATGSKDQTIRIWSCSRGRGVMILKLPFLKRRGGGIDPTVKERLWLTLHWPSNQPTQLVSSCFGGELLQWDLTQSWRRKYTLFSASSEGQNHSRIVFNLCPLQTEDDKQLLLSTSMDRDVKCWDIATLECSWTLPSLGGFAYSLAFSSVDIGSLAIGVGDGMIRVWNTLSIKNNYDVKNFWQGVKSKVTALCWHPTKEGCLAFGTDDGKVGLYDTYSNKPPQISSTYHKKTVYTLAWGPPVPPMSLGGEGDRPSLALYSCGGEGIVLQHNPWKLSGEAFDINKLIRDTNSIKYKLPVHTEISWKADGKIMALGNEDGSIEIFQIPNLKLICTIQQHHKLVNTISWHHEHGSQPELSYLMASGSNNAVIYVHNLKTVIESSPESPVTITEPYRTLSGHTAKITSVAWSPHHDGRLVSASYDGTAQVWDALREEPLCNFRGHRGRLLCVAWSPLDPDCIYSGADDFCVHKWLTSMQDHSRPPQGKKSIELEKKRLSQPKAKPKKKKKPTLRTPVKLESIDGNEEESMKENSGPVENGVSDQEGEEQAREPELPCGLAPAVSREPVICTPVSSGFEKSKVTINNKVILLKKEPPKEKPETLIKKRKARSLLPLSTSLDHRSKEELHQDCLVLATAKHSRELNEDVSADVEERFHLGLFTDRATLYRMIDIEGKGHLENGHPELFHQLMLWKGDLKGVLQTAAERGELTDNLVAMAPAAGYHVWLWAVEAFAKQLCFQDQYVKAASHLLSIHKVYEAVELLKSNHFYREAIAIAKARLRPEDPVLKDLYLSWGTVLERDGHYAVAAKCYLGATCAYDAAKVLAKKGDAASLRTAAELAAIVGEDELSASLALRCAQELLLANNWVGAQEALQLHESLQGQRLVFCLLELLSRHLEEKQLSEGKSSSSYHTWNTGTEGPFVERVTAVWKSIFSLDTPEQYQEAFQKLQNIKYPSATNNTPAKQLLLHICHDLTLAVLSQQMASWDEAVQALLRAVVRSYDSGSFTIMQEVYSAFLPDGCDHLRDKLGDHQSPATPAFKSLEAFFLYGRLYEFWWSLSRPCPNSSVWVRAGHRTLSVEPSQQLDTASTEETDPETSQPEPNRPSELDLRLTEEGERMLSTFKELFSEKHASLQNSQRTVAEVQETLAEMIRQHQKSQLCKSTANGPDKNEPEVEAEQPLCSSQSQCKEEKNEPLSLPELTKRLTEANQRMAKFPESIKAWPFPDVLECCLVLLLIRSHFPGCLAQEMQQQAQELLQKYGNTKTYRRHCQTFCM

These are yes or no findings as the source states them, for the method shown. Binding seen in cells or lysates may run through a third protein. A yes stands for co-enrichment or nearness to the bait. Other partners may have been found.

This assay addresses GEMIN5-eGFP (UniProt Q8TEQ6). As to the kind of experiment: affinity purification with mass spectrometry.

With SINV NSP1 (from UniProt P03317 1-540), the binding entry is “binds”.

Consider “SINV NSP2 (from UniProt P03317 541-1347)”, for which the binding entry was “binds”.
